Test results taken from patent US20140128572 (published 2014).
Square brackets hold non-standard residues; d marks the D form. * marks the point of attachment. Asn(Trt) = N[C@@H](CC(=O)NC(c1ccccc1)(c1ccccc1)c1ccccc1)C(=O)O; Boc = CC(C)(C)OC(=O)*; tBu = CC(C)(C)*

Legend:
[1] = Fmoc solid-phase peptide synthesis; Sieber resin; PyBOP (comparative SPPS); conditions: whole synthesis, scale 10 mmol
[2] = whole synthesis, scale of the general procedure 10 mmol

Substance | difficulty met (peptide synthesis; purification step) | outcome (peptide synthesis; purification step) | crude mass (peptide synthesis; whole synthesis) [g] | crude purity (method not given) (peptide synthesis; [2]) [%] | crude yield (peptide synthesis; [2]) | difficulty met (peptide synthesis; [2]) | crude yield ([1]; gross yield) | crude mass [1] [mg] | crude purity (method not given) [1] [%]
Boc-Ser(Bzl)-Phe-Pro-Ile-Leu-Pro-Pro-Glu(OBzl)-Glu(OBzl)-Tyr(Bzl)-Leu(OBzl) | a large part of the solid was still in the form of a sticky gum-like solid | it was not possible to collect the obtained precipitate | – | – | – | – | – | – | –
H-LW(Boc)V[Asn(Trt)]S(tBu)-NH2 | – | – | 2.6 | 49 | yield=31% | a significant amount of these peptides precipitated during the process of extraction | gross yield=33% | 605 | 57
